Reference: publication PMC4237329, “Early Chordate Origin of the Vertebrate Integrin αI Domains” (PLoS ONE, 2014)
Results are given in words; binding and its absence hold for the method and conditions named. Some results given as binding are weak or reduced against the parent protein; the word gives no strength. Sequences can lack the tags named with a protein.

Chains of the proteins cited; added tags and fusions are not shown. Lines headed by an entry give the natural chain unless they say otherwise; changes in a name come on top.
UniProt P02454: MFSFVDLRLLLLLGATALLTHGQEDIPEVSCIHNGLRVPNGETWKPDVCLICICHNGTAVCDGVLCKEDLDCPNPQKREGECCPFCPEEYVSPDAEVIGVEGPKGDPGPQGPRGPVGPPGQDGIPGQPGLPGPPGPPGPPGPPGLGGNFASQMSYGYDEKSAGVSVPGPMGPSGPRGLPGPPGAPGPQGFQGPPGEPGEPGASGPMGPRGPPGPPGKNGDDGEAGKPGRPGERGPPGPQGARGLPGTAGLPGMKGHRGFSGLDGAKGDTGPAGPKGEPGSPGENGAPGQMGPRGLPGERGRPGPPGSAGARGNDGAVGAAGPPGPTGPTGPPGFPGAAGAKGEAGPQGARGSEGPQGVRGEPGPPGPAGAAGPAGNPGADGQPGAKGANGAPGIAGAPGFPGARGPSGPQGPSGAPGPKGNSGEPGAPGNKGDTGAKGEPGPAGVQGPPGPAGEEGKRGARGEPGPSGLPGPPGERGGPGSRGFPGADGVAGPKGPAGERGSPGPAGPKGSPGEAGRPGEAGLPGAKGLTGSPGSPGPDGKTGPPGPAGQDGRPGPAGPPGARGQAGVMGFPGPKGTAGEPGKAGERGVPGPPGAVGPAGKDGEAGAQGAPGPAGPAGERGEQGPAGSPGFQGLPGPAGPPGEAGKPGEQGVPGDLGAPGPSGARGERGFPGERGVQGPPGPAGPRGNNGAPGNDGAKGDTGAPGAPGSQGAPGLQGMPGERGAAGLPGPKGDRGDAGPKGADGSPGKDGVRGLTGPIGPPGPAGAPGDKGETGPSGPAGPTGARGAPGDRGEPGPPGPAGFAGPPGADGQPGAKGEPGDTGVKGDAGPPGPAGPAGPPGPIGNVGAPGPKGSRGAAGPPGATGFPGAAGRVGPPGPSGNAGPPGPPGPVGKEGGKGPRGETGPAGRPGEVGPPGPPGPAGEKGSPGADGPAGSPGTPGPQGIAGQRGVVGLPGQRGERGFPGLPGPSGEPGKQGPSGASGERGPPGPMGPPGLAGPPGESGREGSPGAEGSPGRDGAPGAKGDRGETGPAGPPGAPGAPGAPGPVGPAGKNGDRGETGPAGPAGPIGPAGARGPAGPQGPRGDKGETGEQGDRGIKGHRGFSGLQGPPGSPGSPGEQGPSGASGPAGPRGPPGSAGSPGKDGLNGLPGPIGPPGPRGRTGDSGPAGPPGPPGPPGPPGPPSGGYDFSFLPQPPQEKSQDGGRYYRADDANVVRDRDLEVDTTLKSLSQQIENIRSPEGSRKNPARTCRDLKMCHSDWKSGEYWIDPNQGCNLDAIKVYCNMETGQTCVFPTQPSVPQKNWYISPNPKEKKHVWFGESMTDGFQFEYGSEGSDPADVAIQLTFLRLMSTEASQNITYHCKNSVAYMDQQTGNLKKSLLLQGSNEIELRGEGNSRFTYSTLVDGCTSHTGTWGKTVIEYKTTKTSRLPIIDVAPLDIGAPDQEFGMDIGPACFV
UniProt P02463: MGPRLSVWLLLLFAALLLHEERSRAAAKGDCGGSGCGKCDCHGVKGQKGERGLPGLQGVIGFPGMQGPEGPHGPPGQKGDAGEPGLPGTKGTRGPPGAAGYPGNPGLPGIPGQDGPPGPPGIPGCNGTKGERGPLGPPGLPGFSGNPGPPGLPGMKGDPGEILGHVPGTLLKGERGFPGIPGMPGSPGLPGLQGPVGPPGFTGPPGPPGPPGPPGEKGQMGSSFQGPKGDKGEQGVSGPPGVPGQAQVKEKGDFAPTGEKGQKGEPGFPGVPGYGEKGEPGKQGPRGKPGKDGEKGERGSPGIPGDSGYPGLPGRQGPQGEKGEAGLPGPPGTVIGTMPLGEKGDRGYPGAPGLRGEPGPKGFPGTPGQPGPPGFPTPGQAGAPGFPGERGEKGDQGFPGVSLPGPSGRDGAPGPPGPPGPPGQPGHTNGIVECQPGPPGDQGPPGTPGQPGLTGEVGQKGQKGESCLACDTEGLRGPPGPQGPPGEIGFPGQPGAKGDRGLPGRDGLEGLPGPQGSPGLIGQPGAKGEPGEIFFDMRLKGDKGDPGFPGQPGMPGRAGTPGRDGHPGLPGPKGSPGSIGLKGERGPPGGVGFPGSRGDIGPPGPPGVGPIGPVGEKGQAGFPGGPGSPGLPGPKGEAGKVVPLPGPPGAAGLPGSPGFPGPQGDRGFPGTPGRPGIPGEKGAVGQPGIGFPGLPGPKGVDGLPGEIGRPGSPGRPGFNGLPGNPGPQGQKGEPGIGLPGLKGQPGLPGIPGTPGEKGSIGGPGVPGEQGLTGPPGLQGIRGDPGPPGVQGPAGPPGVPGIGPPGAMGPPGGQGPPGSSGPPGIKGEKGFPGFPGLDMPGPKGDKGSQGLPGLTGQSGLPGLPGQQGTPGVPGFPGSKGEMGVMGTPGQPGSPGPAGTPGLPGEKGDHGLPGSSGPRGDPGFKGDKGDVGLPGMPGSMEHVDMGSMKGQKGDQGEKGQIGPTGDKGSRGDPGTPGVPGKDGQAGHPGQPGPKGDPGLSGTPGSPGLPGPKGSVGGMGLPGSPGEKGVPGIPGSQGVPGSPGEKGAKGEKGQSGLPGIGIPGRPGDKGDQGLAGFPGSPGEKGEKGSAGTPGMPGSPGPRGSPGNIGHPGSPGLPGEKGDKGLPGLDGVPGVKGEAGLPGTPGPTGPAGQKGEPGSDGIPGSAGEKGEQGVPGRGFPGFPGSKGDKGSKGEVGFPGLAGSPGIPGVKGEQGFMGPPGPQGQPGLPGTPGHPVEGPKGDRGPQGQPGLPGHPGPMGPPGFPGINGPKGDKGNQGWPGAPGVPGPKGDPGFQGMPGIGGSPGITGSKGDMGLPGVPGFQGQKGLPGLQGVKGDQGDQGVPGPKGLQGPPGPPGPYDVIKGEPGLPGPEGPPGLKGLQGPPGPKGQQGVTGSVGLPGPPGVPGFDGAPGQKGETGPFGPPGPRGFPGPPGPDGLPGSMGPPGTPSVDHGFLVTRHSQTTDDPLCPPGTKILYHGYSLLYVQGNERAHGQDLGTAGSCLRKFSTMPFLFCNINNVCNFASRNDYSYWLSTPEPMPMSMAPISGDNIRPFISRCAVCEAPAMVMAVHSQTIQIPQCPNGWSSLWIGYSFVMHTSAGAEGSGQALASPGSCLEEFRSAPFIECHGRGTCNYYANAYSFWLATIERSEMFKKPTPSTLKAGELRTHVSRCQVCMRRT
UniProt P20849: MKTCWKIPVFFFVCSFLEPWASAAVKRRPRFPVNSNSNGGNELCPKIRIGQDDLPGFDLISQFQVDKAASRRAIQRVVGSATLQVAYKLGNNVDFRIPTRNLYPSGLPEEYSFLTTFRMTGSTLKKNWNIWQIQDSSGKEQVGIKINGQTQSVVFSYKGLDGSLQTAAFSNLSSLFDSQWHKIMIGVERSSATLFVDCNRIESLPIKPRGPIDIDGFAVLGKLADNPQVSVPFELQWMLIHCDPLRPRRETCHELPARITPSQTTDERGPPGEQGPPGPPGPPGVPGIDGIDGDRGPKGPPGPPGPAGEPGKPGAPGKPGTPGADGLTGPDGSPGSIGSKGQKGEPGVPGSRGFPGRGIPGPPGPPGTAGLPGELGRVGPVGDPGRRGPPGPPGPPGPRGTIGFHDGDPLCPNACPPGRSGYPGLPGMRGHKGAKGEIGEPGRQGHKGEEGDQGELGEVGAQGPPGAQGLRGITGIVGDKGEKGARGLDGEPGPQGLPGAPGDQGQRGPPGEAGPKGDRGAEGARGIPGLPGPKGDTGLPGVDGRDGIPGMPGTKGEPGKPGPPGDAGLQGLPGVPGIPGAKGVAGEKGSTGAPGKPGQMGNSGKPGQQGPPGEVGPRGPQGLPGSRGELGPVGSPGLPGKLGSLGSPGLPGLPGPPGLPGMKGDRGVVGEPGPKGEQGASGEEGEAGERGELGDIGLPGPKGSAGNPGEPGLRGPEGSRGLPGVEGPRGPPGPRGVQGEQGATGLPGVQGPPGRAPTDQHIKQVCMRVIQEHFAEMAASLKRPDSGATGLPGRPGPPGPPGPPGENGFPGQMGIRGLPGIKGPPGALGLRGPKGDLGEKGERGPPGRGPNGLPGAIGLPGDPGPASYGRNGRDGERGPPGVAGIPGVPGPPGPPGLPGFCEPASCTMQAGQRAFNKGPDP
UniProt Q14055: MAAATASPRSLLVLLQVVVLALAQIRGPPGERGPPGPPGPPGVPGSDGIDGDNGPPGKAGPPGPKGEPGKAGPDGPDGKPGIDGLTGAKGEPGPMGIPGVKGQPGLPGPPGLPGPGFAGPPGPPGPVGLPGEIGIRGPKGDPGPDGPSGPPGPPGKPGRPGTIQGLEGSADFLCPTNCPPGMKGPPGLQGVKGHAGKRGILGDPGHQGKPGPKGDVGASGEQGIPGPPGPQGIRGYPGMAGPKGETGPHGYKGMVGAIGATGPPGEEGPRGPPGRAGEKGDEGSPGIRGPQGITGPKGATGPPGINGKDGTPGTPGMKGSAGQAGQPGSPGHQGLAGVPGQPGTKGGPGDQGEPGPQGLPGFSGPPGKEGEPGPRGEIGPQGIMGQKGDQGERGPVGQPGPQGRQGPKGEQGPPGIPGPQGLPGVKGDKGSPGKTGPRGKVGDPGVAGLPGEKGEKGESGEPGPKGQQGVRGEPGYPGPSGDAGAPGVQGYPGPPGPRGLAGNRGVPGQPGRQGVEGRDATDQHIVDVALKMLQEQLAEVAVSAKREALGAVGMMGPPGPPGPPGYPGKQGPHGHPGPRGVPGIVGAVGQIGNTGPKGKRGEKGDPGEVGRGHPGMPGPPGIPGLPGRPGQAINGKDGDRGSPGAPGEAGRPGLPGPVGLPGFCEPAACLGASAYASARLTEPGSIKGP
UniProt Q14050: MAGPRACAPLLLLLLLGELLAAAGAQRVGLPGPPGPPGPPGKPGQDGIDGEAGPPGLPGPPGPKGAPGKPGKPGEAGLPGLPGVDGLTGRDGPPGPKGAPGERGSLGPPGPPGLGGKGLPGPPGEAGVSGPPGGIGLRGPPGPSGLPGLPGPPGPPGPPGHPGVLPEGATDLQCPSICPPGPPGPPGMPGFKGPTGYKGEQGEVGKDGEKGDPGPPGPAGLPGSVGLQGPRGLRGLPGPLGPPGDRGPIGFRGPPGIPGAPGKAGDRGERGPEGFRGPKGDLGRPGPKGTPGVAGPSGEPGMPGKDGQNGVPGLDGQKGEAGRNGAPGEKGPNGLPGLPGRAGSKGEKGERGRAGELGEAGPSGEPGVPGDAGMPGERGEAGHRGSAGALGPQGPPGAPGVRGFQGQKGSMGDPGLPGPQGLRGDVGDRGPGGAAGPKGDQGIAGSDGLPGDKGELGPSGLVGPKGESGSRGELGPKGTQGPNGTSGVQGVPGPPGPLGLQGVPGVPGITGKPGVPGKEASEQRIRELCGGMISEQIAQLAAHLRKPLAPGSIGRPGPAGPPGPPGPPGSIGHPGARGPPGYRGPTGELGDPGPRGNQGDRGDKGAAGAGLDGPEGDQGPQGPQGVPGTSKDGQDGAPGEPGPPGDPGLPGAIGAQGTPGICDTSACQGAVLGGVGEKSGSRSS

Assays:
Experiment in all cases: solid-phase binding assay (Europium-labelled anti-GST antibody, time-resolved fluorescence); 96-well plates coated with collagen (16.4 µg/ml) or GFOGER-peptide (5 µg/ml) overnight at 4°C, blocked with BSA-Diluent II; GST-αI domain at a fixed 400 nM added for one hour at RT in PBS + 2 mM …; some samples on rat collagen I with 10 mM EDTA in the binding step; both purified
rat tail collagen I = target: T1, rat tail collagen I (rat, UniProt P02454 152-1207; P02466 86-1125)
T1 construct: collagen α1(I) chain, rat; collagen α2(I) chain, rat; also called rat collagen I; source: bought: Sigma Aldrich (rat tail collagen I)

[1] = target: mouse collagen IV (EHS mouse tumor) (mouse) (UniProt P02463+P08122)
[2] = target: recombinant human collagen IX (human) (UniProt P20849+Q14055+Q14050)

Measured: binding

B1: Pma_f2 αI domain (sea lamprey integrin α subunit fragment Pma_f2), GST-fusion protein (domain or fragment, sea lamprey (Petromyzon marinus))
chain: ADFQVTSTLTPAAQRCGLFMDIVIVLDGSNSIYPWQEVQNFVINIVKKFHIGPGQSRNGGGSTRFGVRTIHWHLGIARWACEGVQDVENIYSRPFVRTASALCQSLQVVRSEAFSPLFGAREGASKVMIVVTDGESHDSEDLTEAIAACERDNITRYAIAVLGYYKRKNIDPSNFISELKAISSEPEEKHFINVADEAALNDIVGTLGERIFSLEGTV
notes: also called Pma αI domains; source: E. coli BL21 tuner (gene synthesized, in pGEX-2T), recombinant GST-fusion protein, "sufficiently pure"
binds: all assays above
